Measured values: the supplement of paper PMC12823440, “Inhibitors supercharge kinase turnover through native proteolytic circuits” (Nature, 2025)
Counter-ions that a name gives are not always drawn. Some of the results follow. The calls rarely recur for the same compound in another form.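 Kinases were expressed as nanoluciferase fusions in K562 cells and luminescence was read every 4 h between 2 and 18 h as percent of control, DMSO set to 100% and a positive control to 0%. A time point counts as decreased when the signal drops significantly (2 sigma). The hit call is the authors' own, does not follow from the count of time points alone, and its rule is not shown.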

Amino acid sequences for entries named in this document (tags omitted). A change or cut given only in a name is not applied to a line headed by its entry.
UniProt Q01974, whole entry: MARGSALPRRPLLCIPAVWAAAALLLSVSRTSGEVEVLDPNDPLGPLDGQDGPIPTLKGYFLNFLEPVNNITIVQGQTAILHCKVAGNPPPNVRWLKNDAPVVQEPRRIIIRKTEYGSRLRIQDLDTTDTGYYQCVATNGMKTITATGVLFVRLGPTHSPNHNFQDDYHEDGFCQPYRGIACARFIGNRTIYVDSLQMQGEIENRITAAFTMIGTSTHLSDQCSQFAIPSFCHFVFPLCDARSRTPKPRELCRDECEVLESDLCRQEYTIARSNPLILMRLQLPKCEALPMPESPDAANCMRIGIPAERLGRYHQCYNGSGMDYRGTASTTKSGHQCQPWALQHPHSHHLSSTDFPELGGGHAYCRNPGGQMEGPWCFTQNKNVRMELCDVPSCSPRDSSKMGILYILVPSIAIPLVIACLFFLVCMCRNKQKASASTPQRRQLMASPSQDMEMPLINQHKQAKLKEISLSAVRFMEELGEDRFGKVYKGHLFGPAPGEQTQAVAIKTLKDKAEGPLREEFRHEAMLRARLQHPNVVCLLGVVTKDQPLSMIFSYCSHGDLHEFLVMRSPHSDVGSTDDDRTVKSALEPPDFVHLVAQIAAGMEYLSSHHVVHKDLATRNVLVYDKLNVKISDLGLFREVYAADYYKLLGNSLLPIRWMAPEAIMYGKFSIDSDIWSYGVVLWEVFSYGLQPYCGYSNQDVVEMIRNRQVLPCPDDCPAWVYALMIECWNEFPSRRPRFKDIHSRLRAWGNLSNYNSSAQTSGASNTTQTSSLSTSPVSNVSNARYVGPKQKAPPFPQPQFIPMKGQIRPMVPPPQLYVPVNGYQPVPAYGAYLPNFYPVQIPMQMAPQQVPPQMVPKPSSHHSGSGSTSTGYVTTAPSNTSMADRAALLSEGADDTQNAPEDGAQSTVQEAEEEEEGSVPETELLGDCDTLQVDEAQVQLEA
UniProt Q9NYA1, whole entry: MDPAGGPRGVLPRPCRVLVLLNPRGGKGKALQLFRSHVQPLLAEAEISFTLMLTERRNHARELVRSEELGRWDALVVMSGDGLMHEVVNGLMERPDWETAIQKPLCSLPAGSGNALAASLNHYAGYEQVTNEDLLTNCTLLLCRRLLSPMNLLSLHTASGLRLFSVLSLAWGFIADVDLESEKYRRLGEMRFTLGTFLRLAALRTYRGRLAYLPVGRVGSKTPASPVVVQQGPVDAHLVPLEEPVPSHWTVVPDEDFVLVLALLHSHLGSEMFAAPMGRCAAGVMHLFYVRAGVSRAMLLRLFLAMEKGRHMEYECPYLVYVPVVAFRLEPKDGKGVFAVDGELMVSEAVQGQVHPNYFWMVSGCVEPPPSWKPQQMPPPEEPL
UniProt Q9Y6E0: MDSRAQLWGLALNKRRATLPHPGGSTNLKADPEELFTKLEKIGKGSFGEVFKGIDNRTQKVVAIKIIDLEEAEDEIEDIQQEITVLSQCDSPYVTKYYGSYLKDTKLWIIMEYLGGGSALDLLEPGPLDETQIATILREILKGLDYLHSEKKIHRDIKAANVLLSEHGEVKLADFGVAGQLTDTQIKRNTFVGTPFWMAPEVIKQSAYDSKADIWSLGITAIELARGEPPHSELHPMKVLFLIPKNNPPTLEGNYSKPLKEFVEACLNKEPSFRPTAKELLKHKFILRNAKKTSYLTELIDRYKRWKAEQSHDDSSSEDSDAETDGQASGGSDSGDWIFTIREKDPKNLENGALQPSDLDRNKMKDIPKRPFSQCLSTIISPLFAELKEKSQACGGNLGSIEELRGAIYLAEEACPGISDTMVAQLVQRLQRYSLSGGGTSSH
UniProt Q15208: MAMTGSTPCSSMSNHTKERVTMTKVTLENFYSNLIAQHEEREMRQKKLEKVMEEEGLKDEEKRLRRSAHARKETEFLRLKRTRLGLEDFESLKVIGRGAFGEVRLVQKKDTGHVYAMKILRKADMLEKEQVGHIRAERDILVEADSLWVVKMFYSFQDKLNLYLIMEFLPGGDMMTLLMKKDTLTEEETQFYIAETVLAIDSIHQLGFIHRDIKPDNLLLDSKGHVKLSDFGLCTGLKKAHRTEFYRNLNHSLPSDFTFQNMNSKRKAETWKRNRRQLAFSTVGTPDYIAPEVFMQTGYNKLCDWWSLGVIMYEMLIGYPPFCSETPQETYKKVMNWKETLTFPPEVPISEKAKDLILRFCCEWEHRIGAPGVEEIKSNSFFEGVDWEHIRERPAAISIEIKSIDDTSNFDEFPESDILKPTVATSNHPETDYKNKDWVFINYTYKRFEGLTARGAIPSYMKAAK
UniProt P42680: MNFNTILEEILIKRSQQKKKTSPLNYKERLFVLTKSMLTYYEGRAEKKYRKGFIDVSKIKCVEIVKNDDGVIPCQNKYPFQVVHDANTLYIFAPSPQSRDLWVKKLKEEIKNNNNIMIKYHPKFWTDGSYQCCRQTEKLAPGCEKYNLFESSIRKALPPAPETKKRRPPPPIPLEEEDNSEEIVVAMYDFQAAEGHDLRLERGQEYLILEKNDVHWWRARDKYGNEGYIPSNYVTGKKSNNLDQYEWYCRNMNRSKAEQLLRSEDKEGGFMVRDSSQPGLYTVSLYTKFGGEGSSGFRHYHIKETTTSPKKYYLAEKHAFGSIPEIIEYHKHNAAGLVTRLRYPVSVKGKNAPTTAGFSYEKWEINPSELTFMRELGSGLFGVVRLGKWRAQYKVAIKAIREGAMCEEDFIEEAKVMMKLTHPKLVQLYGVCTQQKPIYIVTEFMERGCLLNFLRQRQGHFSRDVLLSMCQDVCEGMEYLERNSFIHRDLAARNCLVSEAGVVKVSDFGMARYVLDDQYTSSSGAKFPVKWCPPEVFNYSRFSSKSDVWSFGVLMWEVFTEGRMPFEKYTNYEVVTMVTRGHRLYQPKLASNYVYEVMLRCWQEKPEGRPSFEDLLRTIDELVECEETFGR
UniProt P29597: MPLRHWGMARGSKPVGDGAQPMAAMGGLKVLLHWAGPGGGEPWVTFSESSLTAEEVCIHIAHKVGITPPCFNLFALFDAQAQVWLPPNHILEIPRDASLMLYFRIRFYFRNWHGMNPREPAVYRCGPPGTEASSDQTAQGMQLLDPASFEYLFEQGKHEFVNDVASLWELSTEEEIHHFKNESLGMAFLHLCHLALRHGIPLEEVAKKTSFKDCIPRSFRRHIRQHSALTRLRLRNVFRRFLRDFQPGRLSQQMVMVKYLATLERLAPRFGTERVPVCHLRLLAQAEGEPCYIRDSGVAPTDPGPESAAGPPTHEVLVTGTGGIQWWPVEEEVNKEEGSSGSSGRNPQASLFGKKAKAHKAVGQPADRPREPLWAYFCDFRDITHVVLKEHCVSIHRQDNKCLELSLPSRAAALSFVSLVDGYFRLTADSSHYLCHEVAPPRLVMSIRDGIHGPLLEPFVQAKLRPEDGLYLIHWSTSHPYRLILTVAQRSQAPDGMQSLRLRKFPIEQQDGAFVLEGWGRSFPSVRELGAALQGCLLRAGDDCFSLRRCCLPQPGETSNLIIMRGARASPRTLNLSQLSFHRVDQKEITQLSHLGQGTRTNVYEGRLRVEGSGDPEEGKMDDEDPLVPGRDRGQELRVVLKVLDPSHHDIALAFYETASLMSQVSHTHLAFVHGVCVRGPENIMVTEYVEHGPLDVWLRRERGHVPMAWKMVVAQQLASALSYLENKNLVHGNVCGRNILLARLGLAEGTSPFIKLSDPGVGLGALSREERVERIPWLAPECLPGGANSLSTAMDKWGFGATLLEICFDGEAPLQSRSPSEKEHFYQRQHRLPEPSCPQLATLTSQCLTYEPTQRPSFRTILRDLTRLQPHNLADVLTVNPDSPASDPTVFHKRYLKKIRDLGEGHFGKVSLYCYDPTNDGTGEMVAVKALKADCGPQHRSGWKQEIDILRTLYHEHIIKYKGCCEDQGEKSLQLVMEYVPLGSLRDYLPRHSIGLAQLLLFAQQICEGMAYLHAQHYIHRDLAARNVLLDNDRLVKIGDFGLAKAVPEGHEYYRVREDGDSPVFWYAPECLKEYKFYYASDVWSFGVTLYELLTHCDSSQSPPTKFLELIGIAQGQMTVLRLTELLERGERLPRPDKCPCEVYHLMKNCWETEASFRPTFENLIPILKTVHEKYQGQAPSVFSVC
UniProt Q6PHR2: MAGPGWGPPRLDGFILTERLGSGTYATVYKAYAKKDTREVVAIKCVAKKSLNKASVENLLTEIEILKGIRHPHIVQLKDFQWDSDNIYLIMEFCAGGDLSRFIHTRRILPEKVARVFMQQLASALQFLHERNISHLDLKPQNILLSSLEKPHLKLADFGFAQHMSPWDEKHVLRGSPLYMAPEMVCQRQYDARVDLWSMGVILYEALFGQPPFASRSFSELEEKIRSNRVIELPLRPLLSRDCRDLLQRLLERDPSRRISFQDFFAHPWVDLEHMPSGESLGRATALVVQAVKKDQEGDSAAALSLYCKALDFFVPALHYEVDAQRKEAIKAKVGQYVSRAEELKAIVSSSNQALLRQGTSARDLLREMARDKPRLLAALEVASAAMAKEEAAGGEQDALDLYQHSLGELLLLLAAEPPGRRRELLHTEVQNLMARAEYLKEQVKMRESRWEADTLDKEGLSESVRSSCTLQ
UniProt P07947, whole entry, looked up: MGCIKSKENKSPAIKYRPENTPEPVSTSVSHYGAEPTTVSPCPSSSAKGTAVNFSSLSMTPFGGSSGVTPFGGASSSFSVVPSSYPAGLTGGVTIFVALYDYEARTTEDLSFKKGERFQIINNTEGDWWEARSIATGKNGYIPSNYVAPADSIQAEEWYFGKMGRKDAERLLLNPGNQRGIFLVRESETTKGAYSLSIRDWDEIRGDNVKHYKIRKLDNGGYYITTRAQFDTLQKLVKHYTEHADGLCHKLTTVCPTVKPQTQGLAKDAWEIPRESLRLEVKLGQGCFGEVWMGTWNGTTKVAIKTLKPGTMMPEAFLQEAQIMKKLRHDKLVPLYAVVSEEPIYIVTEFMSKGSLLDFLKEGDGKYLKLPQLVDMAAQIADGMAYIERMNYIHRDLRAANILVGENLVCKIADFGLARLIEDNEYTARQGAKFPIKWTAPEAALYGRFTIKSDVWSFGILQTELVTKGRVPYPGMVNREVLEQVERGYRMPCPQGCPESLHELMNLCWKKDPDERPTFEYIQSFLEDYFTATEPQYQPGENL
UniProt P43403: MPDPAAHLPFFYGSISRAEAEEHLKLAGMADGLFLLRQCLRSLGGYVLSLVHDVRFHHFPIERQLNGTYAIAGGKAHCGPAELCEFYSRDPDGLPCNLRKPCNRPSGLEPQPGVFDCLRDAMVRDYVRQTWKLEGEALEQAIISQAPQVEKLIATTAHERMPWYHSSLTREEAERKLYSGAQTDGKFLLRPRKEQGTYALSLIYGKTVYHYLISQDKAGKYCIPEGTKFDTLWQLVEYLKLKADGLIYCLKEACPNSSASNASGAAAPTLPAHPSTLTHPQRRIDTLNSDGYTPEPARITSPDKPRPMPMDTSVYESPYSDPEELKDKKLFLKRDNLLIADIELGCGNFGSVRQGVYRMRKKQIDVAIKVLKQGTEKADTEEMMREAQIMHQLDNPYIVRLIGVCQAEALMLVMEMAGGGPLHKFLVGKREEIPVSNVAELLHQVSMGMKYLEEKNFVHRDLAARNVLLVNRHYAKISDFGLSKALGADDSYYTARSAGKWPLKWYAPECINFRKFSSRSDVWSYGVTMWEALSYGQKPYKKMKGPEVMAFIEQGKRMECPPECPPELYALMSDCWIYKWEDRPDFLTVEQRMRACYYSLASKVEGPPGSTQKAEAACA
UniProt P11802: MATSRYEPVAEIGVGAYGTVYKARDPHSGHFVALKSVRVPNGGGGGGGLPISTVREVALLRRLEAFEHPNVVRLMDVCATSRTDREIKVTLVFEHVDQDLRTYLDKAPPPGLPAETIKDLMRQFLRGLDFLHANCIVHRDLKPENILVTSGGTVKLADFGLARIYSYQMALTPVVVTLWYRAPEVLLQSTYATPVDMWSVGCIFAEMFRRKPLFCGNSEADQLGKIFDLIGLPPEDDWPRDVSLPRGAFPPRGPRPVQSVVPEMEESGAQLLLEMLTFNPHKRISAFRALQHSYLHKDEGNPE
UniProt P50750, whole entry: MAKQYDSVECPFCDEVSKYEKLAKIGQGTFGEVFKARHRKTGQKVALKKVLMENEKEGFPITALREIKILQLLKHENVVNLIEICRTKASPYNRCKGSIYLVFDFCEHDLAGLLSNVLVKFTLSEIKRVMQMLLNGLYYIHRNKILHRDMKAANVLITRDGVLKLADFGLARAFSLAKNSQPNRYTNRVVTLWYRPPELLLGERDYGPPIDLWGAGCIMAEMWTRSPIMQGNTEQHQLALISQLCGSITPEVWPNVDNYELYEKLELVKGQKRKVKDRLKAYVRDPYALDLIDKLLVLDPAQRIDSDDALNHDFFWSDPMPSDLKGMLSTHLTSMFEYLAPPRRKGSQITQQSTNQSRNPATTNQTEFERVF

How the values were obtained:
Settings in all cases: K562; 2-18 h
[1] = target: ROR2 (UniProt Q01974); test: number of time points (of 5) at which kinase-Nluc abundance scored as decreased, DMSO-normalised (count); higher = more persistent destabilization
[2] = target: RPS6KA1 (UniProt Q15418); test: as above
[3] = target: SPHK1 (UniProt Q9NYA1); test: as above
[4] = target: SRC (UniProt P12931); test: as above
[5] = target: STK24 (UniProt Q9Y6E0); test: as above
[6] = target: STK38 (UniProt Q15208); test: as above
[7] = target: SYK (UniProt P43405); test: as above
[8] = target: TEC (UniProt P42680); test: as above
[9] = target: TYK2 (UniProt P29597); test: as above
[10] = target: ULK3 (UniProt Q6PHR2); test: as above
[11] = target: YES1 (UniProt P07947); test: as above
[12] = target: ZAK (UniProt Q9NYL2); test: as above
[13] = target: ZAP70 (UniProt P43403); test: as above
[14] = target: CDK4 (UniProt P11802); test: number of time points (of 4; 2 h point missing) at which kinase-Nluc abundance scored as decreased, DMSO-normalised (count); higher = more persistent destabilization
[15] = target: CDK7 (UniProt P50613); test: as above
[16] = target: CDK9 (UniProt P50750); test: as above

| SMILES | number of time points [1] | number of time points [2] | number of time points [3] | number of time points [4] | number of time points [5] | number of time points [6] | number of time points [7] | number of time points [8] | number of time points [9] | number of time points [10] | number of time points [11] | number of time points [12] | number of time points [13] | number of time points [14] | number of time points [15] | number of time points [16] |
| --- | --- | --- | --- | --- | --- | --- | --- | --- | --- | --- | --- | --- | --- | --- | --- | --- |
| CC#CC(=O)N1CC[C@@H](n2c(=O)n(-c3ccc(Oc4ccccc4)cc3)c3c(N)ncnc32)C1 [Tirabrutinib (hydrochloride)] (10 µM) | 0 | 0 | 0 | 0 | 0 | 0 | 0 | 0 | 0 | 0 | 0 | 0 | 0 | 0 | 0 | 0 |
| C[C@@H]1CCN(C(=O)CC#N)C[C@@H]1N(C)c1ncnc2[nH]ccc12 [Tofacitinib (citrate)] (10 µM) | 0 | 0 | 0 | 0 | 0 | 0 |  | 0 | 0 | 0 | 0 | 0 | 0 | 0 | 0 | 0 |
| Cc1[nH]c(/C=C2\C(=O)Nc3ccccc32)c(C)c1CCC(=O)O [(Z)-Orantinib] (10 µM) | 0 |  | 0 | 0 | 0 | 0 | 0 | 0 | 0 | 0 | 0 | 0 | 0 | 0 | 0 | 0 |
| Cc1ccc(OCCSc2ncccn2)c(Br)c1 [ZLN024 (hydrochloride)] (10 µM) | 0 | 0 | 0 | 0 | 0 | 0 | 0 | 0 | 0 | 0 | 0 | 0 | 0 | 0 | 0 | 0 |
| O=Nc1c(-c2c(O)[nH]c3ccc(I)cc23)[nH]c2ccccc12 [5-Iodo-indirubin-3'-monoxime] (10 µM) | 0 | 0 | 0 | 0 | 0 | 0 | 0 | 0 | 0 | 0 | 0 | 0 | 0 | 0 | 0 | 0 |
| Cc1[nH]c(/C=C2\C(=O)Nc3ccccc32)c(C)c1CCC(=O)O [Orantinib] (10 µM) | 0 |  | 0 | 0 | 0 | 0 | 0 | 0 | 0 | 0 | 0 | 0 | 0 | 0 | 0 | 0 |
| Nc1ncnc2c1c(-c1ccc(Oc3ccccc3)cc1)nn2C1CCCC1 (2.5 µM) | 0 | 0 | 0 | 0 | 0 | 0 | 0 | 0 | 1 | 0 | 0 | 0 | 0 | 0 | 0 | 0 |
| Cc1ccc(C(=O)Nc2ccc(Oc3cc4cnn(C)c4cc3-c3cn[nH]c3)c(F)c2)c(=O)n1-c1ccc(F)cc1 [Merestinib] (2.5 µM) | 0 | 0 | 0 | 0 | 0 | 0 | 0 | 0 | 0 | 0 | 0 | 0 | 0 | 0 | 0 | 1 |
| COc1ccc2c(OCc3nnc4ccc(-c5ccccc5)nn34)ccnc2c1 (2 µM) | 0 | 0 | 0 | 0 | 0 | 0 | 0 | 0 | 0 | 0 | 0 | 0 | 0 | 0 | 0 | 0 |
| NCCNS(=O)(=O)c1cccc2c(Cl)cccc12 [A-3 (hydrochloride)] (10 µM) | 0 | 0 | 0 | 0 | 0 | 0 | 0 | 0 | 0 | 0 | 0 | 0 | 0 | 0 | 0 | 0 |
| CCOC(=O)N1CCN(C(=O)[C@H](Cc2cccc(C(=N)N)c2)NS(=O)(=O)c2c(C(C)C)cc(C(C)C)cc2C(C)C)CC1 (10 µM) | 0 | 0 | 0 | 0 | 0 | 0 | 0 | 0 | 0 | 0 | 0 | 0 | 0 | 0 | 0 | 0 |
| Cn1cc(-c2ccc3nnc(Sc4ccc5ncccc5c4)n3n2)cn1 (10 µM) | 0 | 0 | 0 | 0 | 0 | 0 | 0 | 0 | 0 | 0 | 0 | 0 | 0 | 0 | 0 | 0 |
| O=C1NC(=O)/C(=C/c2ccc3nccnc3c2)S1 (10 µM) | 0 | 0 | 0 | 0 | 0 | 0 | 0 | 0 | 0 | 0 | 0 | 0 | 0 | 0 | 0 | 0 |
| FC(F)(c1ccc2ncccc2c1)c1nnc2ccc(-c3ccncc3)nn12 (10 µM) | 0 | 0 | 0 | 0 | 0 | 0 | 0 | 0 | 0 | 0 | 0 | 0 | 0 | 0 | 0 | 0 |
| C=C1C(=O)O[C@H]2C[C@H](C)C(/C=C/C(C)=O)=CC[C@H]12 [Xanthatin] (2.5 µM) | 0 | 0 | 0 | 0 | 0 | 0 | 0 | 0 | 0 | 0 | 0 | 0 | 0 | 0 | 0 | 0 |
| C=C(CC[C@@H](C(=O)O)[C@H]1[C@H](O)C[C@@]2(C)C3=C(CC[C@]12C)[C@@]1(C)CC[C@H](OC(C)=O)C(C)(C)[C@@H]1CC3)C(C)C [Pachymic acid] (10 µM) | 0 | 0 | 0 | 0 | 0 | 0 | 0 | 0 | 0 | 0 | 0 | 0 | 0 | 0 | 0 | 0 |
| C[C@@H]1CCN(C(=O)CC#N)C[C@@H]1N(C)c1ncnc2[nH]ccc12 [Tofacitinib] (10 µM) | 0 | 0 | 0 | 0 | 0 | 0 |  | 0 | 0 | 0 | 0 | 0 | 0 | 0 | 0 | 0 |

| SMILES | number of time points [1] | number of time points [2] | number of time points [3] | number of time points [4] | number of time points [5] | number of time points [6] | number of time points [7] | number of time points [8] | number of time points [9] | number of time points [10] | number of time points [11] | number of time points [12] | number of time points [13] | number of time points [14] | number of time points [15] | number of time points [16] |
| --- | --- | --- | --- | --- | --- | --- | --- | --- | --- | --- | --- | --- | --- | --- | --- | --- |
| Cn1cnc2c(F)c(Nc3ccc(Br)cc3Cl)c(C(=O)NOCCO)cc21 [Selumetinib] (10 µM) | 0 | 0 | 0 | 0 | 0 | 0 | 0 | 0 | 0 | 0 | 0 | 0 | 0 | 0 | 0 | 0 |
| COc1cc(Nc2ncc(F)c(Nc3ccc4c(n3)NC(=O)C(C)(C)O4)n2)cc(OC)c1OC (10 µM) | 0 | 0 | 0 | 0 | 0 | 0 |  | 0 | 0 | 0 | 0 | 0 | 0 | 0 | 0 | 0 |
| Cc1ccc(CNc2ncnc3ccc(-c4ccc(CO)o4)cc23)o1 (10 µM) | 0 | 0 | 0 | 0 | 0 | 0 | 0 | 0 | 0 | 0 | 0 | 0 | 0 | 0 | 0 | 0 |
| NC(=O)c1nc(Nc2ccccc2)sc1NC(=O)C1CCCCC1 (10 µM) | 0 | 0 | 0 | 0 | 0 | 0 | 0 | 0 | 0 | 0 | 0 | 0 | 0 | 0 | 0 | 0 |
| COc1cc(OC2CCN(C)CC2)ccc1Nc1ncc2c(n1)n(C1CCCC1)c(=O)n2C (10 µM) | 0 | 0 | 0 | 0 | 0 | 0 | 0 | 0 | 0 | 0 | 0 | 0 | 0 | 0 | 0 | 0 |
| CCN1CCN(Cc2ccc(Nc3ncc(F)c(-c4cc(F)c5nc(C)n(C(C)C)c5c4)n3)nc2)CC1 [Abemaciclib] (2 µM) | 0 | 0 | 0 | 0 | 0 |  | 0 | 0 |  | 0 | 0 | 0 | 0 | 0 | 0 | 0 |
| COc1ccccc1-c1cc(Nc2cccc(CS(N)(=O)=O)c2)ncn1 (10 µM) | 0 | 0 | 0 | 0 | 0 | 0 | 0 | 0 | 0 | 0 | 3 | 0 | 0 | 0 | 3 | 2 |
| COc1cc2ncnc(Nc3ccc(Cl)cc3F)c2cc1OC (10 µM) | 0 | 0 | 0 | 0 | 0 | 0 | 0 | 0 | 0 | 0 | 0 | 0 | 0 | 0 | 0 | 0 |
| O=C([O-])c1cc2ccccc2c(Cc2c(O)c(C(=O)[O-])cc3ccccc23)c1O.[Na+].[Na+] [Pamoic acid (disodium)] (10 µM) | 0 | 0 | 0 | 0 | 0 | 0 | 0 | 0 | 0 | 0 | 0 | 0 | 0 | 0 | 0 | 0 |
| CC[C@@H](Oc1nc(Oc2cc(C)cc(-c3cccc(CN)c3)c2)c(F)cc1F)C(=O)O (10 µM) | 0 | 0 | 0 | 0 | 0 | 0 | 0 | 0 | 0 | 0 | 0 | 0 | 0 | 0 | 0 | 0 |
| C=CC(=O)Nc1cc(C)ccc1Nc1nc(Nc2cc(OC)ncc2C)ncc1C(F)(F)F (10 µM) | 0 | 0 | 0 | 0 | 0 | 0 | 0 | 0 | 0 | 0 | 0 | 0 | 0 | 0 | 0 | 0 |
| CCC(C)N1c2ccccc2C(=O)N(C)c2cnc(Nc3ccc(C(=O)N4CCC(N5CCN(C)CC5)CC4)cc3OC)nc21 (stereo not given) (2.5 µM) | 0 | 0 | 0 | 0 | 0 | 0 | 0 | 0 | 0 | 0 | 0 | 0 | 0 | 0 | 0 | 0 |
| Cc1ccc2nc(NCCN)c3ncc(C)n3c2c1 (2.5 µM) | 0 | 0 | 0 | 0 | 0 | 0 | 0 | 0 |  | 0 | 0 | 0 | 0 | 0 | 0 | 0 |
| Cc1cccc(Oc2cnc(=O)[nH]c2)c1 [Tolimidone] (10 µM) | 0 | 0 | 0 | 0 | 0 | 0 | 0 | 0 | 0 | 0 | 0 | 0 | 0 | 0 | 0 | 0 |
| O=C(NOCC(O)CO)c1cc(Br)c(F)c(F)c1Nc1ccc(I)cc1F (stereo not given) (2.5 µM) | 0 | 0 | 0 | 0 | 0 | 0 | 0 | 0 | 0 | 0 | 0 | 0 | 0 | 0 | 0 | 0 |
| O=C(CSC1=NCCN1)NC1CCCCCC1 [ICCB-19 (hydrochloride)] (2.5 µM) | 0 | 0 | 0 | 0 | 0 | 0 | 0 | 0 | 0 | 0 | 0 | 0 | 0 | 0 | 0 | 0 |

Copied from the results shown (two entries):

| SMILES | number of time points [1] | number of time points [2] | number of time points [3] | number of time points [4] | number of time points [5] | number of time points [6] | number of time points [7] | number of time points [8] | number of time points [9] | number of time points [10] | number of time points [11] | number of time points [12] | number of time points [13] | number of time points [14] | number of time points [15] | number of time points [16] |
| --- | --- | --- | --- | --- | --- | --- | --- | --- | --- | --- | --- | --- | --- | --- | --- | --- |
| FC(F)(c1ccc2ncccc2c1)c1nnc2ccc(-c3ccncc3)nn12 (10 µM) | 0 | 0 | 0 | 0 | 0 | 0 | 0 | 0 | 0 | 0 | 0 | 0 | 0 | 0 | 0 | 0 |
| C=C1C(=O)O[C@H]2C[C@H](C)C(/C=C/C(C)=O)=CC[C@H]12 [Xanthatin] (2.5 µM) | 0 | 0 | 0 | 0 | 0 | 0 | 0 | 0 | 0 | 0 | 0 | 0 | 0 | 0 | 0 | 0 |
